Measurements as given in ChEMBL document CHEMBL4316593 (Eur J Med Chem, 2019).
The source gives many values for each of these; only a part stands here.

Columns and labels:
Format in all cases: cell-based
Details in all cases: U-87MG ATCC
[1] = Inhibition of RTK/PI3K/AKT/mTOR signaling in human U87 cells assessed as down regulation of CA8 gene expression at cytotoxic IC50 measured after 48 hrs relative to control
[2] = Inhibition of RTK/PI3K/AKT/mTOR signaling in human U87 cells assessed as down regulation of ABHD5 gene expression at cytotoxic IC50 measured after 48 hrs relative to control
[3] = Inhibition of RTK/PI3K/AKT/mTOR signaling in human U87 cells assessed as down regulation of RPAP3 gene expression at cytotoxic IC50 measured after 48 hrs relative to control
[4] = Inhibition of RTK/PI3K/AKT/mTOR signaling in human U87 cells assessed as up regulation of DLG4 gene expression at cytotoxic IC50 measured after 48 hrs relative to control
[5] = Inhibition of RTK/PI3K/AKT/mTOR signaling in human U87 cells assessed as down regulation of SZRD1 gene expression at cytotoxic IC50 measured after 48 hrs relative to control
[6] = Inhibition of RTK/PI3K/AKT/mTOR signaling in human U87 cells assessed as down regulation of C1orf52 gene expression at cytotoxic IC50 measured after 48 hrs relative to control
[7] = Inhibition of RTK/PI3K/AKT/mTOR signaling in human U87 cells assessed as down regulation of ACTR1A gene expression at cytotoxic IC50 measured after 48 hrs relative to control
[8] = Inhibition of RTK/PI3K/AKT/mTOR signaling in human U87 cells assessed as down regulation of STIP1 gene expression at cytotoxic IC50 measured after 48 hrs relative to control
[9] = Inhibition of RTK/PI3K/AKT/mTOR signaling in human U87 cells assessed as up regulation of kinesin family member 5A gene expression at cytotoxic IC50 measured after 48 hrs relative to control
[10] = Inhibition of RTK/PI3K/AKT/mTOR signaling in human U87 cells assessed as up regulation of BOP1 gene expression at cytotoxic IC50 measured after 48 hrs relative to control
[11] = Inhibition of RTK/PI3K/AKT/mTOR signaling in human U87 cells assessed as up regulation of CDA gene expression at cytotoxic IC50 measured after 48 hrs relative to control
[12] = Inhibition of RTK/PI3K/AKT/mTOR signaling in human U87 cells assessed as down regulation of DHDDS gene expression at cytotoxic IC50 measured after 48 hrs relative to control
[13] = Inhibition of RTK/PI3K/AKT/mTOR signaling in human U87 cells assessed as down regulation of HMGCS1 gene expression at cytotoxic IC50 measured after 48 hrs relative to control
[14] = Inhibition of RTK/PI3K/AKT/mTOR signaling in human U87 cells assessed as up regulation of NOB1 gene expression at cytotoxic IC50 measured after 48 hrs relative to control
[15] = Inhibition of RTK/PI3K/AKT/mTOR signaling in human U87 cells assessed as up regulation of G protein-coupled receptor class C group 5 member B gene expression at cytotoxic IC50 measured after 48 hrs relative to control
[16] = Inhibition of RTK/PI3K/AKT/mTOR signaling in human U87 cells assessed as down regulation of SF3A1 gene expression at cytotoxic IC50 measured after 48 hrs relative to control
[17] = Inhibition of RTK/PI3K/AKT/mTOR signaling in human U87 cells assessed as up regulation of ARTN gene expression at cytotoxic IC50 measured after 48 hrs relative to control
[18] = Inhibition of RTK/PI3K/AKT/mTOR signaling in human U87 cells assessed as up regulation of BRSK1 gene expression at cytotoxic IC50 measured after 48 hrs relative to control
[19] = Inhibition of RTK/PI3K/AKT/mTOR signaling in human U87 cells assessed as down regulation of CDKL5 gene expression at cytotoxic IC50 measured after 48 hrs relative to control
[20] = Inhibition of RTK/PI3K/AKT/mTOR signaling in human U87 cells assessed as up regulation of retinoid X receptor alpha gene expression at cytotoxic IC50 measured after 48 hrs relative to control
[21] = Inhibition of RTK/PI3K/AKT/mTOR signaling in human U87 cells assessed as down regulation of FAM46C gene expression at cytotoxic IC50 measured after 48 hrs relative to control
[22] = Inhibition of RTK/PI3K/AKT/mTOR signaling in human U87 cells assessed as down regulation of SGK1 gene expression at cytotoxic IC50 measured after 48 hrs relative to control
[23] = Inhibition of RTK/PI3K/AKT/mTOR signaling in human U87 cells assessed as up regulation of claudin 4 gene expression at cytotoxic IC50 measured after 48 hrs relative to control
[24] = Inhibition of RTK/PI3K/AKT/mTOR signaling in human U87 cells assessed as up regulation of KCNQ4 gene expression at cytotoxic IC50 measured after 48 hrs relative to control
[25] = Inhibition of RTK/PI3K/AKT/mTOR signaling in human U87 cells assessed as up regulation of sterile alpha motif domain containing 1 gene expression at cytotoxic IC50 measured after 48 hrs relative to control
[26] = Inhibition of RTK/PI3K/AKT/mTOR signaling in human U87 cells assessed as down regulation of EIF2B1 gene expression at cytotoxic IC50 measured after 48 hrs relative to control
[27] = Inhibition of RTK/PI3K/AKT/mTOR signaling in human U87 cells assessed as up regulation of procollagen-lysine,2-oxoglutarate 5-dioxygenase 3 gene expression at cytotoxic IC50 measured after 48 hrs relative to control
[28] = Inhibition of RTK/PI3K/AKT/mTOR signaling in human U87 cells assessed as down regulation of HCFC2 gene expression at cytotoxic IC50 measured after 48 hrs relative to control
[29] = Inhibition of RTK/PI3K/AKT/mTOR signaling in human U87 cells assessed as down regulation of PAG1 gene expression at cytotoxic IC50 measured after 48 hrs relative to control
[30] = Inhibition of RTK/PI3K/AKT/mTOR signaling in human U87 cells assessed as down regulation of C6orf1 gene expression at cytotoxic IC50 measured after 48 hrs relative to control
[31] = Inhibition of RTK/PI3K/AKT/mTOR signaling in human U87 cells assessed as down regulation of FANCI gene expression at cytotoxic IC50 measured after 48 hrs relative to control
[32] = Inhibition of RTK/PI3K/AKT/mTOR signaling in human U87 cells assessed as up regulation of paired related homeobox 2 gene expression at cytotoxic IC50 measured after 48 hrs relative to control

`CC(=O)C(=NNc1ccccc1C#N)C(C)=O` gave a log2FC [1] of -3.5, a log2FC [2] of -2.16 and a log2FC [3] of -0.561. It also gave a log2FC [4] of 2.65, a log2FC [5] of -0.647 and a log2FC [6] of -0.619. For the same molecule, the log2FC [7] was -0.534, the log2FC [8] was -0.878 and the log2FC [9] was 0.964. It also gave a log2FC [10] of 0.533, a log2FC [11] of 2.35 and a log2FC [12] of -0.613. The log2FC [13] was -1.14, the log2FC [14] was 0.5 and the log2FC [15] was 1.3. It also gave a log2FC [16] of -0.431, a log2FC [17] of 2.65 and a log2FC [18] of 1.81. It also gave a log2FC [19] of -1.09, a log2FC [20] of 0.956 and a log2FC [21] of -1.19. For the same molecule, the log2FC [22] was -2.13, the log2FC [23] was 1.02 and the log2FC [24] was 1.72. The log2FC [25] was 1.27, the log2FC [26] was -0.809 and the log2FC [27] was 0.808. For the same molecule, the log2FC [28] was -1.11, the log2FC [29] was -1.84 and the log2FC [30] was -1.44. It also gave a log2FC [31] of -0.72 and a log2FC [32] of 1.29.
